These are yes or no findings as the source states them, for the method shown. In cells and extracts the contact can be indirect. Here binding means that the protein was enriched with, or labelled near, the bait; the list need not be complete. Where a sequence is shown, tags or fusion partners need not be part of it.
Molecular target: T1, tagged wild-type FBXW2 (F-box and WD-repeat domain-containing 2) (UniProt Q9UKT8)
T1 sequence: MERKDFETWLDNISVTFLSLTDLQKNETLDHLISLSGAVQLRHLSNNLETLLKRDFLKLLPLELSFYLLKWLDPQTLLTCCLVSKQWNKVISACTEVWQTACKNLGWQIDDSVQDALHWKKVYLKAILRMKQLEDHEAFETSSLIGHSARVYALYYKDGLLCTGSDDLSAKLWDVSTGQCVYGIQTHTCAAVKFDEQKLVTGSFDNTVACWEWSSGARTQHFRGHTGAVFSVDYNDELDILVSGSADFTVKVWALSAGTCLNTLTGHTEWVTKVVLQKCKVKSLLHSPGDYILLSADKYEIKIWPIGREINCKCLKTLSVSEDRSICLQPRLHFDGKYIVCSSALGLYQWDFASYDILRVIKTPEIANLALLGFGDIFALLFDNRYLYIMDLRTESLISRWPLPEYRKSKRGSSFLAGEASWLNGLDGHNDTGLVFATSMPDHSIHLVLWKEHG
Test: affinity purification with mass spectrometry; H1299 cells with ectopic expression of tagged wild-type FBXW2; 196 putative binding proteins

Chains of the proteins cited; added tags and fusions are not shown.
UniProt P35222: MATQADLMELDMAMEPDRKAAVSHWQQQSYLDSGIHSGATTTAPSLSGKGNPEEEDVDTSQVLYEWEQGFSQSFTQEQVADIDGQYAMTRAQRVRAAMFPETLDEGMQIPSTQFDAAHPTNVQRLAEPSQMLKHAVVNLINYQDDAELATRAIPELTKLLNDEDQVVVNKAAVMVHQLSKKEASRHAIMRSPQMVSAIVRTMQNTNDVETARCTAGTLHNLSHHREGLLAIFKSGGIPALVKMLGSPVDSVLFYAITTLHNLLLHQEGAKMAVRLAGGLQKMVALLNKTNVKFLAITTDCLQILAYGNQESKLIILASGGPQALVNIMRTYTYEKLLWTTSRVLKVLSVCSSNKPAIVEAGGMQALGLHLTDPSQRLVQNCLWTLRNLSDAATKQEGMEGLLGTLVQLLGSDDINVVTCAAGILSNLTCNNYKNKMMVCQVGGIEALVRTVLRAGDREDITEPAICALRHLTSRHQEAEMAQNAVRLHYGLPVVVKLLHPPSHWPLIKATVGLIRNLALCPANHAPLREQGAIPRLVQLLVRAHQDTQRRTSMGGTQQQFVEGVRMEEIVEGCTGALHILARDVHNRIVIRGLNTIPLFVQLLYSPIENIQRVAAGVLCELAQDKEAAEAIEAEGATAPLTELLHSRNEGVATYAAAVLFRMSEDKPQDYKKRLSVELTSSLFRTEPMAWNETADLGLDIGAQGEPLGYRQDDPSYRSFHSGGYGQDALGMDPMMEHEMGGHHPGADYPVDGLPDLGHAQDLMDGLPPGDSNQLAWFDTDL

binding: binds
Substance: endogenous β-catenin (from UniProt P35222 1-781)

From article PMC6437151
